Test results taken from article PMC2527678.

Key:
Assay in all cases: EMSA
Adr1 DBD S98A = molecular target: T1, Adr1 DBD S98A (UniProt P07248); settings: apparent equilibrium constant; EMSA as in Thukral et al. [17]; recombinant protein; residues 17-160
T1 sequence (looked up): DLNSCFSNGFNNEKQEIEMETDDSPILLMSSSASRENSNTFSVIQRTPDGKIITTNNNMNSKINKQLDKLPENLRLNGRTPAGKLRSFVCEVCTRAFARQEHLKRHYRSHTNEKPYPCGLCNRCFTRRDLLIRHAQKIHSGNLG

Adr1 DBD wild type = molecular target: T2, Adr1 DBD wild type (UniProt P07248); settings: apparent equilibrium constant; EMSA as in Thukral et al. [17]; recombinant protein; residues 17-160
T2 sequence (looked up): T1 sequence (looked up) with A82S

Adr1 DBD S98D = molecular target: T3, Adr1 DBD S98D (UniProt P07248); settings: apparent equilibrium constant, approximately 10-fold reduced; EMSA as in Thukral et al. [17]; recombinant protein; residues 17-160
T3 sequence (looked up): T1 sequence (looked up) with A82D

## GCATTGACTAAGTTCTCCAACTTATAAGTTGGAGATGAATCAGTTACG (double strand) [ADH2 promoter UAS1 probe]
Adr1 DBD S98A
  Kd: 0.02 µM
Adr1 DBD wild type
  Kd: 0.02 µM
Adr1 DBD S98D
  Kd: 0.2 µM

Changes are numbered by the printed parent chain. For at least one entry, the source does not settle the construct or the ends of the probe. Protein sequences can lack the tags named with them.
